Construct, isoform or probe ends are uncertain for at least one entry. Protein sequences can lack the tags named with them.
Target: T1, CosR (rCosR) (UniProt Q0PBF4)
T1 sequence (looked up, limits assumed): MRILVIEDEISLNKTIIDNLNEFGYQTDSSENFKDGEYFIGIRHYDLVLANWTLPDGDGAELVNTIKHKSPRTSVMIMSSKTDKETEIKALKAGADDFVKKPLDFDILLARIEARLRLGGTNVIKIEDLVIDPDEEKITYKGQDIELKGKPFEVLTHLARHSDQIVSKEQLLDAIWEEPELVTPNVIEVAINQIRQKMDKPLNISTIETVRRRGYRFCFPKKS
Experiment: DNase I footprinting
Conditions: footprinting: same buffer + 10 mM MgCl2, 40 ul, 37 C 10 min, recombinant protein, label: 5'-32P on S17 strand, probe letters rebuilt from the primers and the genome

Question: Does “ACTAGCACAAGCTGGTTGATCATTATGTCCTACGCATTCAACGCATTTGTTTGCATAGACATAATATCTATCTTCACCTTCTGGATTGTTAGTATCATCAACGATAGCATTCACTGGACACTCATCAATACAAGAACCACAAGCAATACATATATCTGTAATTTTTACAGCCATTTTTTCTCCTTATTTAATATTAAGATTTAAAAGATTTTAGCATAAAATTCTTAAATAAAGTAAATTTTGATAATCAAAAATTTACCTTATTTGATAATAATTATAACTTTTTTAAATTTTTAATATTATCTTAGATATTTAAAAAAAAATAAAGATTTAAACGATATAATTTCGTTATCAATAAAATTTATTATTTAGGAGAAAATATGATAGTTACTAAAAAAGCTTTAGATTTTACTGCTCCAGCGGTATTAGGAAACAATGAAATTGTTCAAGATTTTAATCTTTATAAAAACATAGGTCCAAAAGGAGCGGTAGTATT (double strand) [ahpC promoter footprint probe]” bind (10 mM MgCl2, site BahpC-1 (-37 to -17))?
Answer: Result: binds

Question: Does “ACTAGCACAAGCTGGTTGATCATTATGTCCTACGCATTCAACGCATTTGTTTGCATAGACATAATATCTATCTTCACCTTCTGGATTGTTAGTATCATCAACGATAGCATTCACTGGACACTCATCAATACAAGAACCACAAGCAATACATATATCTGTAATTTTTACAGCCATTTTTTCTCCTTATTTAATATTAAGATTTAAAAGATTTTAGCATAAAATTCTTAAATAAAGTAAATTTTGATAATCAAAAATTTACCTTATTTGATAATAATTATAACTTTTTTAAATTTTTAATATTATCTTAGATATTTAAAAAAAAATAAAGATTTAAACGATATAATTTCGTTATCAATAAAATTTATTATTTAGGAGAAAATATGATAGTTACTAAAAAAGCTTTAGATTTTACTGCTCCAGCGGTATTAGGAAACAATGAAATTGTTCAAGATTTTAATCTTTATAAAAACATAGGTCCAAAAGGAGCGGTAGTATT (double strand) [ahpC promoter footprint probe]” bind (10 mM MgCl2, site BahpC-2 (+1 to +21))?
Answer: Result: binds

Reference: article PMC3139631
